# PubChem BioAssay AID1159584 – Peter MacCallum Cancer Centre – 2016
# Screen: 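Knock-downs that harm CDH1-null cells more than parental MCF10A cells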 (primary screen)
# Cells: human MCF10A breast epithelial cells, parental and CDH1-null
# Reagents: siRNA against human genes
# Detection: 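ATP luminescence (CellTiter-Glo) viability per line relative to mean mock wells over all plates, and the ratio of CDH1-null to parental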
# Reading the numbers: CDH1-null / parental viability ratio: higher = CDH1-null cells survive relatively better than parental; CDH1-null viability vs mock: higher = more viable CDH1-null cells; parental viability vs mock: higher = more viable parental cells
# Here is a random part of about 18,000 reagents. Not stated in the record: the amount of reagent, the time to read-out.
Target gene,CDH1-null / parental viability ratio,CDH1-null viability vs mock (fraction of mock),parental viability vs mock (fraction of mock)
VCX,1.11,1,0.9
CSNK2A1,0.59,0.6,1.01
UBR3,0.86,0.49,0.57
SPANXN2,0.8,0.78,0.98
BPIFB4,1.17,1.17,1
RNF175,0.91,0.68,0.75
ZNF708,1.45,0.61,0.42
GPR65,0.79,0.77,0.97
VEGFC,1.01,0.93,0.92
GPC4,0.88,0.74,0.84
AQP3,0.91,0.82,0.9
LPAR4,0.46,0.38,0.82
LINC01588,1.74,0.73,0.42
COQ8A,0.56,0.4,0.71
CALM3,0.97,0.9,0.93
MCAT,1.02,1,0.98
HDAC10,1.4,0.73,0.52
GGN,1.13,0.88,0.78
UCN2,1.13,0.34,0.3
MEP1B,1.32,0.74,0.56
ADGRA2,0.72,0.62,0.86
RAB11B,1.05,0.64,0.61
CLEC11A,0.95,0.8,0.84
KRT27,1.11,1.15,1.04
SLC35F5,0.97,0.74,0.76
TERF2,1.3,0.91,0.7
GPX2,1.11,1.04,0.94
RSPH1,1.13,1.04,0.92
LRGUK,0.76,0.66,0.87
RTP1,1,0.58,0.58
DNALI1,0.95,0.52,0.55
ECM2,1.07,1.11,1.04
C4BPA,0.99,0.97,0.98
KLF14,0.98,0.82,0.84
OR5T1,1.05,0.46,0.44
STK32A,1.01,0.84,0.83
ATXN3,1.03,1.23,1.2
F2R,0.78,0.94,1.21
RASL12,0.88,0.88,1
PLA1A,0.85,0.82,0.96
AGPAT2,0.99,0.99,1
TMEM59,1.36,0.91,0.67
TIMM22,0.92,0.94,1.02
TDRD10,0.91,1.03,1.13
YAF2,0.89,0.91,1.02
KCNA4,1.12,0.84,0.75
ARHGEF10L,0.95,0.82,0.86
AKAP8L,1.1,0.77,0.7
OR8G2P,0.84,0.76,0.9
POFUT3,1.13,0.54,0.48
CFH,1,0.92,0.92
P2RY10,0.71,0.73,1.03
OR1I1,0.84,0.43,0.51
OR8H1,1.38,0.87,0.63
TBC1D32,0.94,1,1.06
SAMD4A,0.96,1.04,1.08
ARMCX5,1.21,0.8,0.66
HLA-G,0.83,0.53,0.64
NNMT,1.05,0.82,0.78
H4C5,1.18,1.04,0.88
FAABTP,1.13,0.79,0.7
SULT1A4,1.12,0.96,0.86
ST6GALNAC1,1.55,0.96,0.62
SPPL3,1.18,0.97,0.82
STMN2,0.82,0.36,0.44
ZNF12,1.03,0.76,0.74
MED19,1.11,0.62,0.56
ZNF846,1.73,0.64,0.37
SEC16B,0.86,0.83,0.97
LNP1,1.12,0.96,0.86
CCDC121,0.74,0.68,0.92
DRC4,0.88,0.67,0.76
ALDH6A1,1.07,1.1,1.03
KCTD5,1.1,0.92,0.84
SPI1,0.7,0.5,0.71
SLC4A10,1.05,1,0.95
OTUD6B,1.37,0.48,0.35
GLRA2,1.05,0.86,0.82
UCN3,1.14,0.84,0.74
CBR1,0.97,0.7,0.72
EDA2R,1.09,1.02,0.94
LARGE1,0.74,0.59,0.8
LRP4,0.91,0.75,0.82
TBC1D13,1.13,0.62,0.55
THOP1,0.93,0.54,0.58
CCDC83,0.85,0.68,0.8
LRR1,0.92,0.98,1.06

Records above whose gene name begins with O or o (5):
Target gene,CDH1-null / parental viability ratio,CDH1-null viability vs mock (fraction of mock),parental viability vs mock (fraction of mock)
OR5T1,1.05,0.46,0.44
OR8G2P,0.84,0.76,0.9
OR1I1,0.84,0.43,0.51
OR8H1,1.38,0.87,0.63
OTUD6B,1.37,0.48,0.35
